Earlier results, collected in patent publication US20190008973A1, “INTRALIPID-IODINE FOR IMAGING” (priority 2017, published 2019).
At least one structure is not confirmed: it was looked up by name or label, or the drawing left a doubt.

Columns and labels:
[1] = test system: ischemia-reperfusion (IR) injury; conditions: sham-operated hearts; cited from earlier work
free fatty acid efflux = conditions: 20-min ischemia, 40 min reperfusion; cited from earlier work
[2] = target: T1, N-methyl-D-aspartate receptor channels (Mus musculus, UniProt P35438); conditions: cited from earlier work
T1 construct: cultured cortical neurons from the mouse; endogenous in cells; host or cells: cultured mouse cortical neurons

[3] = test system: lipid-dependent mitochondrial respiration (carnitine exchange); conditions: cited from earlier work

Structure (SMILES): COC[C@H]1OC(=O)c2coc3c2[C@@]1(C)C1=C(C3=O)[C@@H]2CCC(=O)[C@@]2(C)C[C@H]1OC(C)=O [wortmannin]
- effect of inhibitor on infarct-sparing effect of ILP [1]: completely blocked

Structure (SMILES): Cc1cc2c(C(C)C)c(O)c(O)c(C=O)c2c(O)c1-c1c(C)cc2c(C(C)C)c(O)c(O)c(C=O)c2c1O [Gossypol]
- I/R-evoked FFA efflux (free fatty acid efflux): significantly reducing the efflux of docosahexaenoic, arachidonic and oleic acids

Structure (SMILES): CN1CCc2cc3c(cc2[C@H]1[C@@H]1OC(=O)c2c1ccc1c2OCO1)OCO3 [bicuculline]
- effect on emulsion-induced currents [2]: not affected

Structure (SMILES): COC(=O)[C@H]1[C@@H](OC(=O)c2ccccc2)C[C@@H]2CC[C@H]1N2C [cocaine]
- lipid-dependent mitochondrial respiration [3]: inhibited
